Our source for the binding values is article PMC8536394.

Sequences of proteins named here, by UniProt entry; tags and fusion partners are left off. A change or cut given only in a name is not applied to a line headed by its entry. A line that says so, or that is headed by a name, gives the form on record, which may keep a tag or linker. Residues count along the entry.
UniProt Q96KN1: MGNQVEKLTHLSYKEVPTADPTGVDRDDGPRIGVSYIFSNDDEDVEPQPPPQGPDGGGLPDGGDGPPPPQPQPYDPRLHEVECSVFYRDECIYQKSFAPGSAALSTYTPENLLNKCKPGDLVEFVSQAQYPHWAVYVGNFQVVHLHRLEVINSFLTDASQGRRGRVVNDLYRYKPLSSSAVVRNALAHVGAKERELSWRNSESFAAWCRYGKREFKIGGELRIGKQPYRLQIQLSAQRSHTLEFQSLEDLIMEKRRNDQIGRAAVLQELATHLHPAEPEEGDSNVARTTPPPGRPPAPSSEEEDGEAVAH
UniProt Q9NR31: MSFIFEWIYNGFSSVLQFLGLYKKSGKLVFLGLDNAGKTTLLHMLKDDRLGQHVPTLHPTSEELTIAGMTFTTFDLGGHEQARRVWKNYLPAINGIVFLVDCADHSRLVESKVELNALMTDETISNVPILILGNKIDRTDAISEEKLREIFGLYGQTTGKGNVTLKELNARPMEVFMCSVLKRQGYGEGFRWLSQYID
GST-tagged human Sar1A with its N-terminal amphipathic helix removed (GST-Sar1A^Δ1–17): residues 18-198 of Q9NR31
UniProt O15260: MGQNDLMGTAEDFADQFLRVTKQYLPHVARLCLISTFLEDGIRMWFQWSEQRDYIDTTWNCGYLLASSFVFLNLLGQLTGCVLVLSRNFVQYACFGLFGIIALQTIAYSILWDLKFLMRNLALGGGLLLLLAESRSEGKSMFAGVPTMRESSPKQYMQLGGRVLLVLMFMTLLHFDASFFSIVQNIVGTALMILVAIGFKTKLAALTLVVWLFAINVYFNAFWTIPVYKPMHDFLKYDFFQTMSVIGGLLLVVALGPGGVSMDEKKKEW
UniProt Q96M27: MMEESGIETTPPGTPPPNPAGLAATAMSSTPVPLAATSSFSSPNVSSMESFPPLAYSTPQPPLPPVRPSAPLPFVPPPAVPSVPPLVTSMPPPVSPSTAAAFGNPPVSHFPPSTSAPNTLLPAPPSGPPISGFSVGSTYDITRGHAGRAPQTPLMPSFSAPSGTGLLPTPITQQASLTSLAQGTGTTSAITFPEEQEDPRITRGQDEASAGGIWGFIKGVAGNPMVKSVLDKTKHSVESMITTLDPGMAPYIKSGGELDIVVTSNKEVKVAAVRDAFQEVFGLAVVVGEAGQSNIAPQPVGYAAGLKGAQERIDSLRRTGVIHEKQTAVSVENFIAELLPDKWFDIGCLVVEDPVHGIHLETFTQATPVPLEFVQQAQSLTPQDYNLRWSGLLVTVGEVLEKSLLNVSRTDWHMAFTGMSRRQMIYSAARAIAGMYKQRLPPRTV
UniProt O43747: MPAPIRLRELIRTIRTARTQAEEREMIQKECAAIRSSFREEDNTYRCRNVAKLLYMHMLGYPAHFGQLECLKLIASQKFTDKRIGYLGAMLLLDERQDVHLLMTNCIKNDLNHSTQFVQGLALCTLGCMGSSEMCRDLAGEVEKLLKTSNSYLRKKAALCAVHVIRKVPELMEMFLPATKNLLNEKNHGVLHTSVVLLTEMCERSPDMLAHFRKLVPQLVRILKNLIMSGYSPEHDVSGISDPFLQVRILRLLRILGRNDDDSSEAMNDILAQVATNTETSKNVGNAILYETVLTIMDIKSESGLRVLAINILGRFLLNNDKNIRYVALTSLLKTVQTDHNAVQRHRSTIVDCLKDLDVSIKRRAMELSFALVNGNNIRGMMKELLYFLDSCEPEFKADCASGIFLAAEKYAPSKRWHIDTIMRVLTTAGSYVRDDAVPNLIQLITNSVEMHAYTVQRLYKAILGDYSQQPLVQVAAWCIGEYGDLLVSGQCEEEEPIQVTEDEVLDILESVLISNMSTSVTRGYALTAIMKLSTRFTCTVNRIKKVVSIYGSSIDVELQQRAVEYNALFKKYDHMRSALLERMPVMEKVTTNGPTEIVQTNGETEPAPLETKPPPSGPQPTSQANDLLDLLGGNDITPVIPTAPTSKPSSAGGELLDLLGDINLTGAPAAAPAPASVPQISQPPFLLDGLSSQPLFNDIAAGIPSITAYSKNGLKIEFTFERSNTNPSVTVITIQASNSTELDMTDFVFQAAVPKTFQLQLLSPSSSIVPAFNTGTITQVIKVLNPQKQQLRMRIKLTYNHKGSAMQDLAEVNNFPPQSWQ
UniProt Q3T1I4: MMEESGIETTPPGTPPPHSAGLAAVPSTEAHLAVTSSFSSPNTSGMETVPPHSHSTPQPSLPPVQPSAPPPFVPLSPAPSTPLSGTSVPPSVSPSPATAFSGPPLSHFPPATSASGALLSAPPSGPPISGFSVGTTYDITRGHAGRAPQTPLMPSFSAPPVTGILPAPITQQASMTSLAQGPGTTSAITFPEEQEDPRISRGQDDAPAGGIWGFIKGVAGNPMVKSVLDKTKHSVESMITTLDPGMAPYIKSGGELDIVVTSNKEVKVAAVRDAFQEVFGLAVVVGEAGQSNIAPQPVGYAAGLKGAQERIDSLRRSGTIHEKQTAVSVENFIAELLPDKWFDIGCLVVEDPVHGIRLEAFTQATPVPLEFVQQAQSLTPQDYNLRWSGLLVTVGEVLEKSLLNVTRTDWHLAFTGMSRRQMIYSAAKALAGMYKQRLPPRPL

These are yes or no findings as the source states them, for the method shown. In cells and extracts the contact can be indirect. Some binding calls cover weakened binding; strength is not graded here.

In experiment [1] the target is HA-tagged FAM84B/LRATD2 (FAM84B-HA) (UniProt Q96KN1). Kind of experiment: co-IP; HEK293T cells expressing FAM84B-HA treated in 2 mM DSP cross-linker; lysates incubated with beads conjugated with HA antibodies; Western blot. In general terms: Immunoblotting shows a protein as a band on a membrane.
Experiment [2] has as its target GST-tagged human Sar1A with its N-terminal amphipathic helix removed (GST-Sar1A^Δ1–17) (human) (UniProt Q9NR31). Kind of experiment: pull-down; GST-Sar1A^Δ1–17 loaded with GMPPNP, immobilised on glutathione beads, incubated with rat liver cytosol; bound proteins eluted with EDTA; immunoblot; only the target purified.
Experiment [3] concerns the target SURF4-HA (UniProt O15260). Kind of experiment: co-IP; co-immunoprecipitation with SURF4-HA in the presence of a cross-linker.
The target in experiment [4] is FLAG-tagged PRRC1 (PRRC1-FLAG) (UniProt Q96M27). Kind of experiment: co-IP; M2 agarose beads incubated with lysates of HEK293T cells expressing PRRC1-FLAG; eluted with 3× FLAG peptides; Western blot.

With “AP1γ1 (γ-subunit of the adaptor complex 1) (from UniProt O43747 1-822)”, the binding entry in experiment [1] is listed as “binds”.
As for “PRRC1 of rat liver cytosol (from UniProt Q3T1I4 1-443)”, in experiment [2], the binding result is “no binding”.
In the case of “Sar1A, HEK293T (from UniProt Q9NR31 1-198)”, in experiment [1], the binding entry is reported as “no binding”.

B1: NUCB1 (protein, UniProt Q02818 27-461)
chain: VPLERGAPNKEETPATESPDTGLYYHRYLQEVIDVLETDGHFREKLQAANAEDIKSGKLSRELDFVSHHVRTKLDELKRQEVSRLRMLLKAKMDAEQDPNVQVDHLNLLKQFEHLDPQNQHTFEARDLELLIQTATRDLAQYDAAHHEEFKRYEMLKEHERRRYLESLGEEQRKEAERKLEEQQRRHREHPKVNVPGSQAQLKEVWEELDGLDPNRFNPKTFFILHDINSDGVLDEQELEALFTKELEKVYDPKNEEDDMREMEEERLRMREHVMKNVDTNQDRLVTLEEFLASTQRKEFGDTGEGWETVEMHPAYTEEELRRFEEELAAREAELNAKAQRLSQETEALGRSQGRLEAQKRELQQAVLHMEQRKQQQQQQQGHKAPAAHPEGQLKFHPDTDDVPVPAPAGDQKEVDTSEKKLLERLPEVEVPQHL
In the case of B1, the binding result in experiment [3] is “binds”.

B2: NUCB2 (protein, UniProt P80303 25-420)
chain: VPIDIDKTKVQNIHPVESAKIEPPDTGLYYDEYLKQVIDVLETDKHFREKLQKADIEEIKSGRLSKELDLVSHHVRTKLDELKRQEVGRLRMLIKAKLDSLQDIGMDHQALLKQFDHLNHLNPDKFESTDLDMLIKAATSDLEHYDKTRHEEFKKYEMMKEHERREYLKTLNEEKRKEEESKFEEMKKKHENHPKVNHPGSKDQLKEVWEETDGLDPNDFDPKTFFKLHDVNSDGFLDEQELEALFTKELEKVYDPKNEEDDMVEMEEERLRMREHVMNEVDTNKDRLVTLEEFLKATEKKEFLEPDSWETLDQQQFFTEEELKEYENIIALQENELKKKADELQKQKEELQRQHDQLEAQKLEYHQVIQQMEQKKLQQGIPPSGPAGELKFEPHI
For B2, the binding result in experiment [3] is “binds”.

B3: Sec31A (outer COPII subunit), HEK293T (protein, UniProt O94979 1-1220)
chain: MKLKEVDRTAMQAWSPAQNHPIYLATGTSAQQLDATFSTNASLEIFELDLSDPSLDMKSCATFSSSHRYHKLIWGPYKMDSKGDVSGVLIAGGENGNIILYDPSKIIAGDKEVVIAQNDKHTGPVRALDVNIFQTNLVASGANESEIYIWDLNNFATPMTPGAKTQPPEDISCIAWNRQVQHILASASPSGRATVWDLRKNEPIIKVSDHSNRMHCSGLAWHPDVATQMVLASEDDRLPVIQMWDLRFASSPLRVLENHARGILAIAWSMADPELLLSCGKDAKILCSNPNTGEVLYELPTNTQWCFDIQWCPRNPAVLSAASFDGRISVYSIMGGSTDGLRQKQVDKLSSSFGNLDPFGTGQPLPPLQIPQQTAQHSIVLPLKKPPKWIRRPVGASFSFGGKLVTFENVRMPSHQGAEQQQQQHHVFISQVVTEKEFLSRSDQLQQAVQSQGFINYCQKKIDASQTEFEKNVWSFLKVNFEDDSRGKYLELLGYRKEDLGKKIALALNKVDGANVALKDSDQVAQSDGEESPAAEEQLLGEHIKEEKEESEFLPSSGGTFNISVSGDIDGLITQALLTGNFESAVDLCLHDNRMADAIILAIAGGQELLARTQKKYFAKSQSKITRLITAVVMKNWKEIVESCDLKNWREALAAVLTYAKPDEFSALCDLLGTRLENEGDSLLQTQACLCYICAGNVEKLVACWTKAQDGSHPLSLQDLIEKVVILRKAVQLTQAMDTSTVGVLLAAKMSQYANLLAAQGSIAAALAFLPDNTNQPNIMQLRDRLCRAQGEPVAGHESPKIPYEKQQLPKGRPGPVAGHHQMPRVQTQQYYPHGENPPPPGFIMHGNVNPNAAGQLPTSPGHMHTQVPPYPQPQPYQPAQPYPFGTGGSAMYRPQQPVAPPTSNAYPNTPYISSASSYTGQSQLYAAQHQASSPTSSPATSFPPPPSSGASFQHGGPGAPPSSSAYALPPGTTGTLPAASELPASQRTGPQNGWNDPPALNRVPKKKKMPENFMPPVPITSPIMNPLGDPQSQMLQQQPSAPVPLSSQSSFPQPHLPGGQPFHGVQQPLGQTGMPPSFSKPNIEGAPGAPIGNTFQHVQSLPTKKITKKPIPDEHLILKTTFEDLIQRCLSSATDPQTKRKLDDASKRLEFLYDKLREQTLSPTITSGLHNIARSIETRNYSEGLTMHTHIVSTSNFSETSAFMPVLKVVLTQANKLGV
As for B3, the binding result in experiment [4] is listed as “no binding”.
